Source: article PMC2323286
Results are given in words; binding and its absence hold for the method and conditions named. For some assays here: In cells and extracts the contact can be indirect. Some binding calls cover weakened binding; strength is not graded here. For some assays here: Tags and fused reporters may be left off the sequences shown.

Protein sequences, listed by entry. Tags and fused reporters are not part of them.
UniProt P21699: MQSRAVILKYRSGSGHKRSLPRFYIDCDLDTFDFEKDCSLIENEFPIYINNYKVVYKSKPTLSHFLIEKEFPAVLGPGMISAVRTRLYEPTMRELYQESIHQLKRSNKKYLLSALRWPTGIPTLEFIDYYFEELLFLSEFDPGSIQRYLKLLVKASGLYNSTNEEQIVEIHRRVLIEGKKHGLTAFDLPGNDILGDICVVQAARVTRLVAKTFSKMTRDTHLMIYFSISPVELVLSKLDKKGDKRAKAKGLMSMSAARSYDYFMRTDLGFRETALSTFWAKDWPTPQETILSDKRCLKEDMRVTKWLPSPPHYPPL
UniProt P21698: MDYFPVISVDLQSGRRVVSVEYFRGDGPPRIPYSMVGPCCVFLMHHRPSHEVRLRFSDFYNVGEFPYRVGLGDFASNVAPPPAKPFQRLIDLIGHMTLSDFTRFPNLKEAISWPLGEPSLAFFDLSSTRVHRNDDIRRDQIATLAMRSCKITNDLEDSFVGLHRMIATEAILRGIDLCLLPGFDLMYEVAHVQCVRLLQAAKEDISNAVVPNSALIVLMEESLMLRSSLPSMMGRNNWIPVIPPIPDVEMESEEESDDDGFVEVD

B1: full length HA tagged-SAP30 protein (pCi-HA-SAP30) (protein, UniProt O88574 1-220)
chain: MNGFTPEEMSRGGDAAAAVAAVVAAAAAAASAGNGNAAGGGAEVPGAGAVSASGPPGAAGPGPGQLCCLREDGERCGRAAGNASFSKRIQKSISQKKVKIELDKSARHLYICDYHKNLIQSVRNRRKRKGSDDDGGDSPVQDIDTPEVDLYQLQVNTLRRYKRHFKLPTRPGLNKAQLVEIVGCHFKSIPVNEKDTLTCFIYSVRNDKNKSDLKADSGVH

Columns and labels:
[1] = molecular target: NSs of Toscana virus fused to the Gal4 DNA-binding domain (pGBKT7-NSsTOS) (Toscana virus) (UniProt P21699); assay: two-hybrid
[2] = molecular target: GST-NSs (Rift Valley fever virus) (UniProt P21698); assay: pull-down; […]; 50 mM Tris HCl pH 7.5, 100 mM NaCl, […]; only the target purified

Row | Molecule | binding [1] | binding [2]
1 | SAP30 amino acids 1-152 fused to the Gal4 transactivating domain (pACT2-SAP30_(1–152)) (from UniProt O88574 1-152) (domain or fragment) | no binding | –
2 | B1 | – | binds
